This is an account of results in paper PMC12118337 (Chembiochem, 2025).

HELM strings list residues between dots; [ac] is acetyl, [am] amide, other brackets name non-standard units.

This data set is described as follows: general procedure: Fmoc solid-phase peptide synthesis; rink amide resin (Novabiochem); HBTU/HOBt/NMM. The settings on record: whole synthesis, 230 nm.
In the case of FAM-QTE(pY)ATIKHP-NH2, the “final LC-MS purity” value stood at 98.0%.
Regarding “PEPTIDE1{[ac].E.Q.T.E.[pY].A.T.I.V.F.P.[am]}$$$$V2.0”, the “final LC-MS purity” value is on record as 97.2%.
Take FAM-rrrrrrrr-dPEG2-QTE(L-OMT)ATIKHP-NH2: the “final LC-MS purity” value stood at 100%.
For “PEPTIDE1{[ac].Q.T.E.[Pmp].A.T.I.K.H.P.[am]}$$$$V2.0”, the “final LC-MS purity” value is recorded as 98.2%.
With “PEPTIDE1{[ac].Q.T.E.[L-OMT].A.T.I.K.H.P.[am]}$$$$V2.0”, the “final LC-MS purity” value was 100%.
